This note sets out measurements from US20250026805A1 (DUCENTIS BIOTHERAPEUTICS, published 2025).

These are yes or no findings as the source states them, for the method shown. Some entries that bind do so weakly or less than the wild type. Tags and fused reporters may be left off the sequences shown.

For the test, the target named is T1, Recombinant Human CD200R, His tagged (human) (UniProt Q8TD46).
T1 sequence (looked up): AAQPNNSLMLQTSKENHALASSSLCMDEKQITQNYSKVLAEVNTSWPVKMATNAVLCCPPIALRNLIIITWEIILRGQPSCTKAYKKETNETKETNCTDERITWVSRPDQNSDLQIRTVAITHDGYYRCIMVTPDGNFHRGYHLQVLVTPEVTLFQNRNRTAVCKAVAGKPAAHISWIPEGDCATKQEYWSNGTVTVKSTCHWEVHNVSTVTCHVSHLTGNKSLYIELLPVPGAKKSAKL
Put plainly: SPR (Biacore T200). (SPR reads the build-up and loss of mass on a sensor chip optically.)

B1: DS-161 mutant CD200-Fc fusion protein (K130F, IgG2 Fc) (Fc fusion)
chain: QVQVVTQDEREQLYTPASLKCSLQNAQEALIVTWQKKKAVSPENMVTFSENHGVVIQPAYKDKINITQLGLQNSTITFWNITLEDEGCYMCLFNTFGFGFISGTACLTVYVQPIVSLHYKFSEDHLNITCSATARPAPMVFWKVPRSGIENSTVTLSHPNGTTSVTSILHIKDPKNQVGKEVICQVLHLGTVTDFKQTVNKGERKCCVECPPCPAPPVAGPSVFLFPPKPKDTLMISRTPEVTCVVVDVSHEDPEVQFNWYVDGVEVHNAKTKPREEQFNSTFRVVSVLTVVHQDWLNGKEYKCKVSNKGLPAPIEKTISKTKGQPREPQVYTLPPSREEMTKNQVSLTCLVKGFYPSDISVEWESNGQPENNYKTTPPMLDSDGSFFLYSKLTVDKSRWQQGNVFSCSVMHEALHNHYTQKSLSLSPGK
notes: Purified as the dimeric form
B1: the binding entry is “binds”.

B2: DS-162 mutant CD200-Fc fusion protein (I131F, IgG2 Fc) (Fc fusion)
chain: QVQVVTQDEREQLYTPASLKCSLQNAQEALIVTWQKKKAVSPENMVTFSENHGVVIQPAYKDKINITQLGLQNSTITFWNITLEDEGCYMCLFNTFGFGKFSGTACLTVYVQPIVSLHYKFSEDHLNITCSATARPAPMVFWKVPRSGIENSTVTLSHPNGTTSVTSILHIKDPKNQVGKEVICQVLHLGTVTDFKQTVNKGERKCCVECPPCPAPPVAGPSVFLFPPKPKDTLMISRTPEVTCVVVDVSHEDPEVQFNWYVDGVEVHNAKTKPREEQFNSTFRVVSVLTVVHQDWLNGKEYKCKVSNKGLPAPIEKTISKTKGQPREPQVYTLPPSREEMTKNQVSLTCLVKGFYPSDISVEWESNGQPENNYKTTPPMLDSDGSFFLYSKLTVDKSRWQQGNVFSCSVMHEALHNHYTQKSLSLSPGK
notes: Purified as the dimeric form
B2: the binding entry is “binds”.
